Test results from patent US10006918B2, “Fluorogenic hydrazine-substituted compounds” (LIFE TECHNOLOGIES CORPORATION, priority 2008, dated 2018).

Experiment: Aldehyde reactivity of compounds: fluorogenic reaction with acetaldehyde in phosphate buffer, excitation/emission spectra
Format: physicochemical
Method: Spectra were taken at pH 6 in a 50 mM phosphate buffer solution.
Spectra were taken at pH 6 in 50 mM phosphate buffer solution.
A sample of Compound 2 (5 mg, 0.0126 mmol) is dissolved in 10 ml of pH 6.5, 50 mmol phosphate buffer solution. To this non-fluorescent solution, is added 25 ul, 1 mol solution of acetaldehyde in water at room temperature. […] The reaction is complete in 10 minutes to give a stable […] analog. Its absorption max is at 548 nm and emission max is at 580 nm (see FIGS. 3A and B).

With `NN=c1ccc2c(-c3ccccc3S(=O)(=O)O)c3ccc(NN)cc3oc-2c1` [Compound 2, 2-(6-hydrazinyl-3-hydrazono-3H-xanthen-9-yl)benzenesulfonate] the “fluorescence of solution before addition of acetaldehyde” value (5 mg in 10 ml pH 6.5, 50 mmol phosphate buffer) was “non-fluorescent” and the “fluorescent emissions from excitation at 519 nm, un-reacted compound” value (un-reacted dye, excitation at 519 nm, FIG. 3A) was “no fluorescent emissions detected”.
